# A weaker result is weaker than the reference pair of the same experiment. Tags and fusion partners may be left off the protein sequences shown.
# Molecular target: T1, Elk-1 (Homo sapiens) (UniProt P19419)
# T1 sequence (looked up, limits assumed): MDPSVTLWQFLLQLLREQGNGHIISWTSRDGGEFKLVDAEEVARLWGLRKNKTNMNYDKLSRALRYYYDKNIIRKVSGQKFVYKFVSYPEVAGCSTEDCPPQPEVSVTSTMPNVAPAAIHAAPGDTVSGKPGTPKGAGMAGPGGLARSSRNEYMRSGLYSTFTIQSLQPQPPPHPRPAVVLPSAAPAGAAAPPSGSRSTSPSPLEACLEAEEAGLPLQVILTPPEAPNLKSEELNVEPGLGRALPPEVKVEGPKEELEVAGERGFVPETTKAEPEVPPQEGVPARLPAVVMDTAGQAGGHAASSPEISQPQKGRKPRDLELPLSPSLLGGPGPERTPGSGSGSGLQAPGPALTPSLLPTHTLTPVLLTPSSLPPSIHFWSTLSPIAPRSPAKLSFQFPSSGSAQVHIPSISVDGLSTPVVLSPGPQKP
# Assay: EMSA
# Conditions: less binding than A allele probe; same buffer; purified recombinant protein; protein details: recombinant human Elk-1, Sigma Aldrich; variant of GRIN2B promoter rs3764030 A allele probe
sequence,measurement,value
CATCTCCGGGGGACACGCGAA (double strand) [GRIN2B promoter rs3764030 G allele probe],binding result,binds more weakly

# — patent publication US20170349943, “METHODS FOR DETECTING ENHANCED NMDA RECEPTOR FUNCTION AND USES THEREOF” (INOVA HEALTH SYSTEM, published 2017)
